Data reported in publication PMC3475652.
Results are given in words; binding and its absence hold for the method and conditions named. Binding seen in cells or lysates may run through a third protein. Here binding means that the protein was enriched with, or labelled near, the bait; the list need not be complete.

Sequences of proteins named here, by UniProt entry; tags and fusion partners are left off. Residues count along the entry.
UniProt P03070, residues 1-350: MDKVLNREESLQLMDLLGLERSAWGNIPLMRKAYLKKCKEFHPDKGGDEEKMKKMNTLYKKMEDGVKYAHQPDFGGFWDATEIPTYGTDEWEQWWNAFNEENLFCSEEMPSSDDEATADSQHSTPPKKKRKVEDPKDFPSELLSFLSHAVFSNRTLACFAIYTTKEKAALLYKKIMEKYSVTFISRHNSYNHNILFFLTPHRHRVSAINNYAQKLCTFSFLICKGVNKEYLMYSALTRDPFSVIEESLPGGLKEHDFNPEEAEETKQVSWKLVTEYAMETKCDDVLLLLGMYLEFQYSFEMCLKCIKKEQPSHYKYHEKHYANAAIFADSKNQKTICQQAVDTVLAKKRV

Target: SV40 large T antigen residues 1 to 350 (T8 fragment), N-terminal HA and FLAG tags (SV40) (UniProt P03070)
Assay: affinity purification with mass spectrometry; affinity purification of LT constructs with iTRAQ stable isotope labeling; enrichment relative to the negative control

B1: p107 (RBL1) (protein, UniProt P28749 1-1068)
chain: MFEDKPHAEGAAVVAAAGEALQALCQELNLDEGSAAEALDDFTAIRGNYSLEGEVTHWLACSLYVACRKSIIPTVGKGIMEGNCVSLTRILRSAKLSLIQFFSKMKKWMDMSNLPQEFRERIERLERNFEVSTVIFKKYEPIFLDIFQNPYEEPPKLPRSRKQRRIPCSVKDLFNFCWTLFVYTKGNFRMIGDDLVNSYHLLLCCLDLIFANAIMCPNRQDLLNPSFKGLPSDFHTADFTASEEPPCIIAVLCELHDGLLVEAKGIKEHYFKPYISKLFDRKILKGECLLDLSSFTDNSKAVNKEYEEYVLTVGDFDERIFLGADAEEEIGTPRKFTRDTPLGKLTAQANVEYNLQQHFEKKRSFAPSTPLTGRRYLREKEAVITPVASATQSVSRLQSIVAGLKNAPSDQLINIFESCVRNPVENIMKILKGIGETFCQHYTQSTDEQPGSHIDFAVNRLKLAEILYYKILETVMVQETRRLHGMDMSVLLEQDIFHRSLMACCLEIVLFAYSSPRTFPWIIEVLNLQPFYFYKVIEVVIRSEEGLSRDMVKHLNSIEEQILESLAWSHDSALWEALQVSANKVPTCEEVIFPNNFETGNGGNVQGHLPLMPMSPLMHPRVKEVRTDSGSLRRDMQPLSPISVHERYSSPTAGSAKRRLFGEDPPKEMLMDKIITEGTKLKIAPSSSITAENVSILPGQTLLTMATAPVTGTTGHKVTIPLHGVANDAGEITLIPLSMNTNQESKVKSPVSLTAHSLIGASPKQTNLTKAQEVHSTGINRPKRTGSLALFYRKVYHLASVRLRDLCLKLDVSNELRRKIWTCFEFTLVHCPDLMKDRHLDQLLLCAFYIMAKVTKEERTFQEIMKSYRNQPQANSHVYRSVLLKSIPREVVAYNKNINDDFEMIDCDLEDATKTPDCSSGPVKEERGDLIKFYNTIYVGRVKSFALKYDLANQDHMMDAPPLSPFPHIKQQPGSPRRISQQHSIYISPHKNGSGLTPRSALLYKFNGSPSKSLKDINNMIRQGEQRTKKRVIAIDSDAESPAKRVCQENDDVLLKRLQDVVSERANH
binding: binds
